Test results from paper PMC11317515.
Substitutions are numbered along the chain they refer to. These are yes or no findings as the source states them, for the method shown. In cells and extracts the contact can be indirect. Some binding calls cover weakened binding; strength is not graded here. For part of these data: Sequences can lack the tags named with a protein.

Amino acid sequences for entries named in this document (tags omitted).
UniProt P02566: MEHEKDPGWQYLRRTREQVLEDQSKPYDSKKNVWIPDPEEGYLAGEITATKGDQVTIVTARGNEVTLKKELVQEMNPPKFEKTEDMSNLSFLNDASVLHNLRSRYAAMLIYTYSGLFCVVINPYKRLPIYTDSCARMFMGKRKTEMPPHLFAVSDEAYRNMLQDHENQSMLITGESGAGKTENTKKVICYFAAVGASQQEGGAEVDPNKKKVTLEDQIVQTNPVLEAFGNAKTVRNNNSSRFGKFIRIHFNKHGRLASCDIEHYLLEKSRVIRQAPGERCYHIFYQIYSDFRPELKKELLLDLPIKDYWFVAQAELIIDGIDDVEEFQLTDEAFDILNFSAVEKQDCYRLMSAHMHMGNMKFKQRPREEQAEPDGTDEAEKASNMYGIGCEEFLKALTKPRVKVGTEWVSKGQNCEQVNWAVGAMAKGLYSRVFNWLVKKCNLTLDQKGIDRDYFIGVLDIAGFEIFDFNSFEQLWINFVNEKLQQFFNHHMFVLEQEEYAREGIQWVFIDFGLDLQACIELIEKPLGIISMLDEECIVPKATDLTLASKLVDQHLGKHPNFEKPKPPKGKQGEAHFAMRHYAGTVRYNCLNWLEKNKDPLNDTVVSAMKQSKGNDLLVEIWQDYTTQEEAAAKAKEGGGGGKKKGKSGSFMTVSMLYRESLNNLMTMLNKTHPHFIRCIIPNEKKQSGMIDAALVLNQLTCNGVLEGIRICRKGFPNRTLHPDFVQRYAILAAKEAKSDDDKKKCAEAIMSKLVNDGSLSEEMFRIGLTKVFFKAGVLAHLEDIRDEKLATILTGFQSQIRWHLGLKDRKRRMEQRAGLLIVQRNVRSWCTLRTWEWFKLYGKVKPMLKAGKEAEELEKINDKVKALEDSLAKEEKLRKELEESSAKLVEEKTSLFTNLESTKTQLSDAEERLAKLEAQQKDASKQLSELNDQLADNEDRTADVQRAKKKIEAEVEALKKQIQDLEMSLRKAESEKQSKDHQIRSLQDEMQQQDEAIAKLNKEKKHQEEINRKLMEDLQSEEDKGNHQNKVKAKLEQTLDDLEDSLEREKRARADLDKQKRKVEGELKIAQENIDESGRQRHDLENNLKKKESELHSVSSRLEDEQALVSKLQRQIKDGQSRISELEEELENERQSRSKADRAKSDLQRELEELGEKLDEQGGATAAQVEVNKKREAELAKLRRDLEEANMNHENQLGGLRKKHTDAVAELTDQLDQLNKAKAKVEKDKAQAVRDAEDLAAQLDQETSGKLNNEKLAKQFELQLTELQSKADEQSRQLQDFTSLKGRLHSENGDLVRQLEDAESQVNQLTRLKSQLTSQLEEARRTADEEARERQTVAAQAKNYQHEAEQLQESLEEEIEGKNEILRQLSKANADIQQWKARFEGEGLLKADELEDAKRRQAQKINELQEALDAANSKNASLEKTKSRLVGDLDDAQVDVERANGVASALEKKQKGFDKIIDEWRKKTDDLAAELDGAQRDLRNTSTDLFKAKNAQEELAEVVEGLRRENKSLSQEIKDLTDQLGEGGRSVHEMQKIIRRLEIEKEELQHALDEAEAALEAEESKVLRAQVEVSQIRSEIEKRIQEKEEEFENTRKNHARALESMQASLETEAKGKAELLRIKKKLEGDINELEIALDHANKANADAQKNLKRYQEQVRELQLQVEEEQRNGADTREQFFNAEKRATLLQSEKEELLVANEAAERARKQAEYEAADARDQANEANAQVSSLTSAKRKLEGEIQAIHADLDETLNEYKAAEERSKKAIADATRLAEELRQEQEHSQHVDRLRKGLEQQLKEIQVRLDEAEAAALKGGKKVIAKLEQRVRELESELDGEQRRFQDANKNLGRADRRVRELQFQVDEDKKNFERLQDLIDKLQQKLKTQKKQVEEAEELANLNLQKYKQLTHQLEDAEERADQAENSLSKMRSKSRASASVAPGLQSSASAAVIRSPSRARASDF

Tests used:
[1] = molecular target: T1, UNC-45(b131, p.G427E) (endogenous) (C. elegans) (UniProt G5EG62); test: co-IP; UNC-45 antibody, from worm lysates (transgenic worms with FLAG-NHL-1 and HA-F40A3.6; unc-45 mutants), done as the FLAG co-immunoprecipitation; western blot
T1 sequence: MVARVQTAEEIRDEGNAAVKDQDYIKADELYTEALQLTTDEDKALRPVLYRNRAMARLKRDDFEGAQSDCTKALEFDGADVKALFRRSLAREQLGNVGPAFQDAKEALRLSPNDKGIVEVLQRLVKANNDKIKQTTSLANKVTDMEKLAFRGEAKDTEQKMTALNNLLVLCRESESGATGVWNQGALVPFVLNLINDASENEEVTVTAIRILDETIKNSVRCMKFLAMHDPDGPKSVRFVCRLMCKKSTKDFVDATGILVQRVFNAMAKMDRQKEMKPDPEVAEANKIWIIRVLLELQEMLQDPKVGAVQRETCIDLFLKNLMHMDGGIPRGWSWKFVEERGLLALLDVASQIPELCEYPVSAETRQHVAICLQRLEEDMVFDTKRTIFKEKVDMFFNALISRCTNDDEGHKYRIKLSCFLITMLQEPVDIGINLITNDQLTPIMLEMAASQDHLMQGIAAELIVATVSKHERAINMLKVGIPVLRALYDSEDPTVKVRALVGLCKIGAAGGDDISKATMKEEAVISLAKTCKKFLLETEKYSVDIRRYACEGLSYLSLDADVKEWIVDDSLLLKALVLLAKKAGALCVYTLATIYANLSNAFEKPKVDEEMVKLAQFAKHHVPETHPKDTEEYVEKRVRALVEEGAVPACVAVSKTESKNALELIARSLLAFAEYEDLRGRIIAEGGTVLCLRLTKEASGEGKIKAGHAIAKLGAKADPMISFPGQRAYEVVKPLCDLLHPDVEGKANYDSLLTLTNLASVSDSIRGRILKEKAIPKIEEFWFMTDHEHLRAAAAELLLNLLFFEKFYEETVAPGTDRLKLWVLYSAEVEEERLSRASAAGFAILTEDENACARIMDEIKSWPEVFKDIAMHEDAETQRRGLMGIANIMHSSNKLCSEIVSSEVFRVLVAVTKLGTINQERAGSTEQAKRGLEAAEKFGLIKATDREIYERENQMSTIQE

[2] = molecular target: T2, UNC-45 (endogenous) (C. elegans) (UniProt G5EG62); test: as above
T2 sequence: T1 sequence with E427G

FLAG-NHL-1 (C. elegans) = molecular target: T3, FLAG-NHL-1 (C. elegans) (UniProt Q03601); test: co-IP; anti-FLAG (M2) and Dynabeads Protein A from lysates (NP40 lysis buffer, diluted in PBS with 0.02% Tween-20, 4 °C) of transgenic worms with FLAG-NHL-1 and HA-F40A3.6 in wild-type or unc-54(e1301) background, 25 °C for 24 h before collection; western blot
T3 sequence: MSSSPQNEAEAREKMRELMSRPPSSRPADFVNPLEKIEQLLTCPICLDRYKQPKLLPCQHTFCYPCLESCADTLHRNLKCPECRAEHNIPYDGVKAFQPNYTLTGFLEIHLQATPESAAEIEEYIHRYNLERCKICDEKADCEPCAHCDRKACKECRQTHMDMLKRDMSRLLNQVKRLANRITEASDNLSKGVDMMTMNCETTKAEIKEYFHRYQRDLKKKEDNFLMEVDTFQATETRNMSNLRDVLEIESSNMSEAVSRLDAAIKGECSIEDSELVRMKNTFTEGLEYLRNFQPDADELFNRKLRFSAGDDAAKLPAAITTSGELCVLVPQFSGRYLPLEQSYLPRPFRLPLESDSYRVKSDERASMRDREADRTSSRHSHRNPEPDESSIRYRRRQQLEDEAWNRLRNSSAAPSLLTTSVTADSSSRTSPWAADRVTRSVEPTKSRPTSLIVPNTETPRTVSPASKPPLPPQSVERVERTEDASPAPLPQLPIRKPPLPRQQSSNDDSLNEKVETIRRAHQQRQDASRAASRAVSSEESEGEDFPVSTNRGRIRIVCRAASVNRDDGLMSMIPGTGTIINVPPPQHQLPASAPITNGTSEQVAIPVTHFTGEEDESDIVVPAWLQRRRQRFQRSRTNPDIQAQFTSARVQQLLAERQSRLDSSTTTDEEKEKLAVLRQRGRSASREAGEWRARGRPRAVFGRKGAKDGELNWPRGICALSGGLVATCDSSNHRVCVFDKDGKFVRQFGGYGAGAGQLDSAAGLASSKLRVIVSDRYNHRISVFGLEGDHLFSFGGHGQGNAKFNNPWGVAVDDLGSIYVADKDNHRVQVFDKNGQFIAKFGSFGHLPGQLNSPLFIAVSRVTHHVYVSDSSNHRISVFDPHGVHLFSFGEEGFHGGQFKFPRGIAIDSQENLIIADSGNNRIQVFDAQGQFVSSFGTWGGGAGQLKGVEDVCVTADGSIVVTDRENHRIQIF

Measured: binding

UNC-54 (myosin heavy chain B, MHC B) (from UniProt P02566 1-1963)
binds: all assays above
